In paper PMC11118681 one finds binding data, which are given here for 2 substances.

Chains of the proteins cited; added tags and fusions are not shown.
UniProt O95477: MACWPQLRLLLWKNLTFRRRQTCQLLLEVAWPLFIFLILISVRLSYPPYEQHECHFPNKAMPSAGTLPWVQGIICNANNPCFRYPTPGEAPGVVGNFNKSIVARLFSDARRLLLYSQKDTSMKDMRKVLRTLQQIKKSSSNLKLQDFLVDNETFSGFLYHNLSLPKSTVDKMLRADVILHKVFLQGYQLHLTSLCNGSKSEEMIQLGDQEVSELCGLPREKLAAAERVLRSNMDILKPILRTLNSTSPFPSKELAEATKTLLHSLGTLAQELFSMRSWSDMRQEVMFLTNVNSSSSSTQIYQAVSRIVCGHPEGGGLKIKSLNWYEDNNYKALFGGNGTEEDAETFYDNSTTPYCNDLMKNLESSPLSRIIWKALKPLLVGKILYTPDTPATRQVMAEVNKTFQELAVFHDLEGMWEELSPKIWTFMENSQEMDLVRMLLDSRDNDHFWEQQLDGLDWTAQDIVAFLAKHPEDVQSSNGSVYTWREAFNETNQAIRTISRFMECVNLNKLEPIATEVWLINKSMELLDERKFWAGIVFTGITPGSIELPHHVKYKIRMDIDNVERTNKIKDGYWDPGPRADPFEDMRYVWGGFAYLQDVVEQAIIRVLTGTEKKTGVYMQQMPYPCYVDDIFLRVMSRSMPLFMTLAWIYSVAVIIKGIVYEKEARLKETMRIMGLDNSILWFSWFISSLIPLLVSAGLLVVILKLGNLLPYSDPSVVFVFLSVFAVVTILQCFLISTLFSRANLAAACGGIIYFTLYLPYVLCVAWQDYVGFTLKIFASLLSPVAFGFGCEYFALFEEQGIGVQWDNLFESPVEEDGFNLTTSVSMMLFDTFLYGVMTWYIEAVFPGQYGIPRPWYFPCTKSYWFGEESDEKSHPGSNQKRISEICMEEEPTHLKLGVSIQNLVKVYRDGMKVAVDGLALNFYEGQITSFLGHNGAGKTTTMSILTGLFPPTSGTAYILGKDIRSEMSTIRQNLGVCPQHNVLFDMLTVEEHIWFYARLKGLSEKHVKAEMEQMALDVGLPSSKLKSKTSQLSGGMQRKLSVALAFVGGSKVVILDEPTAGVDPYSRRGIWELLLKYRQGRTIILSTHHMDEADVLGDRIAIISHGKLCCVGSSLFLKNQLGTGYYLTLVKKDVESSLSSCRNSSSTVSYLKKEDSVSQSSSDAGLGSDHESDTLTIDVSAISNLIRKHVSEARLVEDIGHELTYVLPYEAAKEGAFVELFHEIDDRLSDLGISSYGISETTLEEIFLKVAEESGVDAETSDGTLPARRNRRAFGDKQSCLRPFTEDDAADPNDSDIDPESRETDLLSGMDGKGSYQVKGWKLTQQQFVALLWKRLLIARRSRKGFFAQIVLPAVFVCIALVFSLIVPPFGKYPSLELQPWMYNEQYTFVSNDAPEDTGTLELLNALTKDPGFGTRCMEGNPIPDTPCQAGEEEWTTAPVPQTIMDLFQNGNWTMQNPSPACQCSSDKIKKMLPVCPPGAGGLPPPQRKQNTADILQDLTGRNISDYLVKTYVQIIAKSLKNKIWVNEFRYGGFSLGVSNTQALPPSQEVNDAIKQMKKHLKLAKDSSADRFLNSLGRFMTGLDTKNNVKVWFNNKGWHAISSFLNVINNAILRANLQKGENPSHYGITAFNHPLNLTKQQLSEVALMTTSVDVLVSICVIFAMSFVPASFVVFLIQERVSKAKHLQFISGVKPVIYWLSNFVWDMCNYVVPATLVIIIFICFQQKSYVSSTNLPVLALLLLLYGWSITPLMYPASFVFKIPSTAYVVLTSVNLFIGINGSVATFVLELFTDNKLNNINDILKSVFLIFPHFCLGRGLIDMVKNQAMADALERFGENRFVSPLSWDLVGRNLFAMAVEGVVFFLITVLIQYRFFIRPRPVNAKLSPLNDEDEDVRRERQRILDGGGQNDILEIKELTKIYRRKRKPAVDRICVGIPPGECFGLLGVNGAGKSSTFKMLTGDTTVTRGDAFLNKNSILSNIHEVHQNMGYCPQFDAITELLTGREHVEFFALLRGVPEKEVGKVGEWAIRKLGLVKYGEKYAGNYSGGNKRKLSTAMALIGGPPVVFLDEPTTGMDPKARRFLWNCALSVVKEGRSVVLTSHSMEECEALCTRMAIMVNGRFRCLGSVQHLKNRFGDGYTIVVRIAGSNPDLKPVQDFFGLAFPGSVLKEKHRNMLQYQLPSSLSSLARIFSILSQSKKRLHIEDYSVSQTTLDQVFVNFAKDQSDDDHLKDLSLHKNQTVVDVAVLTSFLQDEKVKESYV
UniProt P63010: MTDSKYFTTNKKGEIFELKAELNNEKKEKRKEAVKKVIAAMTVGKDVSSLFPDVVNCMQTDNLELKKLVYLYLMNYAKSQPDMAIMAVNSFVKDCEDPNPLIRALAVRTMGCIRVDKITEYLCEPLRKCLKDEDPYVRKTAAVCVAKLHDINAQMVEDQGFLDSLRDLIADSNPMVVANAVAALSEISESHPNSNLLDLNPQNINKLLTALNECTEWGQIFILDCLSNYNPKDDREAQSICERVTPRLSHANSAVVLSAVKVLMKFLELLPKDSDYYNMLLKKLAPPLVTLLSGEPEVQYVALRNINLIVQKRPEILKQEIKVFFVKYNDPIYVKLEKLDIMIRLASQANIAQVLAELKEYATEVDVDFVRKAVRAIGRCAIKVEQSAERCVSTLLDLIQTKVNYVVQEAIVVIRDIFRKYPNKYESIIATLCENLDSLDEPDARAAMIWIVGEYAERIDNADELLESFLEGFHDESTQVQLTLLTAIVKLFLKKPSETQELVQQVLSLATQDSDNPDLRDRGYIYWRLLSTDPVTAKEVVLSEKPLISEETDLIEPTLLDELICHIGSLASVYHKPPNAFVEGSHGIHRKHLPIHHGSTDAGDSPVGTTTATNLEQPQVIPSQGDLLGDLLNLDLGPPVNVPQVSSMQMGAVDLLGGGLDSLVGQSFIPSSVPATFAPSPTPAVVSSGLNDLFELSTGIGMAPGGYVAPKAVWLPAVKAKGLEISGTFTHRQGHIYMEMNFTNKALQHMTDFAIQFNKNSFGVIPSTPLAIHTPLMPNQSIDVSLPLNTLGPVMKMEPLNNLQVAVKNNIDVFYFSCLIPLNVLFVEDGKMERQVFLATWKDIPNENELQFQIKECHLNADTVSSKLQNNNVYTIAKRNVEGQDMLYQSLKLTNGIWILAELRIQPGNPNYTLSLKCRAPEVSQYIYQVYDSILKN
UniProt Q03135: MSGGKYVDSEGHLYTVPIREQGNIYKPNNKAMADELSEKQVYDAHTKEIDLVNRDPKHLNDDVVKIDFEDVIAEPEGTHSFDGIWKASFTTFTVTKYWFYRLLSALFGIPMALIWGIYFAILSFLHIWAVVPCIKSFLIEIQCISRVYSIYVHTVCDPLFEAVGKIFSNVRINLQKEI

This experiment has as its target ABCA1-GFP (ATP-binding cassette transporter A1 fused to GFP) (UniProt O95477). Briefly: affinity purification with mass spectrometry; GFP-Trap agarose on lysates of HeLa (ABCA1-GFP) cells treated with recombinant APOE3 or APOE4 (0.2 uM, 4 h); lysis in 0.5% NP40, 350 mM NaCl, 20 mM Hepes, 1.2% Triton X-100; overnight at 4°C; glycine elution, TCA precipitation, LC-MS/MS.

Results are given in words; binding and its absence hold for the method and conditions named. Binding seen in cells or lysates may run through a third protein. These calls come from enrichment with a bait or labelling near it, and not all partners need be listed.

For “adaptor-related protein complex 2 subunit beta 1 (from UniProt P63010 1-937)”, the binding entry is recorded as “binds”.

With caveolin-1 (from UniProt Q03135 1-178), the binding result is listed as “binds”.
